Assay results published in paper PMC6961116, “Scaffold-hopping identifies furano[2,3-d]pyrimidine amides as potent Notum inhibitors” (Bioorganic & Medicinal Chemistry Letters, 2020).
Certain results were filed several times, with different values. This list holds those alone. The source may hold further records. Results that share an entry differ, and nothing given here explains why; some may be repeats, others may stem from another dose, organism or construct than stated.

Test system: MDCK-MDR1 monolayer

Cc1sc2ncnc(SCC(=O)N3CCN(CC(F)(F)F)C(=O)C3)c2c1Cl
Papp: 18 ×10⁻⁶ cm/s and 46 ×10⁻⁶ cm/s
